## Screening data, single-dose tests

Sequences of proteins named here, by UniProt entry; tags and fusion partners are left off. Residues count along the entry.
UniProt A4I591, 1-473: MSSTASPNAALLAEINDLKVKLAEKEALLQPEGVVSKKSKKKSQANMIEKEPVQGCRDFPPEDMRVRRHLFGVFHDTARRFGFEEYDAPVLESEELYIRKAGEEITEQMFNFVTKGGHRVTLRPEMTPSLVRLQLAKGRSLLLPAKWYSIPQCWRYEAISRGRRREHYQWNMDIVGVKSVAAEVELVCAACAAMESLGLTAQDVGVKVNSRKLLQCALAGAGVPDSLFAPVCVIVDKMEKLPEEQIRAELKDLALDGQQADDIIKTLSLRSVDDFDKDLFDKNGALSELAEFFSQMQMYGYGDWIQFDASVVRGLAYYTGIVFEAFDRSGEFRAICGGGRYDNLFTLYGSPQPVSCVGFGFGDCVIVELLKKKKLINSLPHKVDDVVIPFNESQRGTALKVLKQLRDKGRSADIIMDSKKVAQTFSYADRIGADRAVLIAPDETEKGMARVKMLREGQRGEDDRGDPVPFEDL
UniProt P9WFT3, whole entry: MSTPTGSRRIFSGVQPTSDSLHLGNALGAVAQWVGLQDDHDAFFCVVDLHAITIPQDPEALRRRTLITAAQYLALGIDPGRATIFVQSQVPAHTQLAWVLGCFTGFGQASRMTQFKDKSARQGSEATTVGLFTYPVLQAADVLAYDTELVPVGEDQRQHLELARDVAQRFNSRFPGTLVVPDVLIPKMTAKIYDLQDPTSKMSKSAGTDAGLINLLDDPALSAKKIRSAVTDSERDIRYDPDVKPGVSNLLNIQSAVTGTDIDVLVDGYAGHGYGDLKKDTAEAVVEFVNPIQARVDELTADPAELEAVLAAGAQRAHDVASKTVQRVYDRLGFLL
UniProt P9WNZ1, whole entry: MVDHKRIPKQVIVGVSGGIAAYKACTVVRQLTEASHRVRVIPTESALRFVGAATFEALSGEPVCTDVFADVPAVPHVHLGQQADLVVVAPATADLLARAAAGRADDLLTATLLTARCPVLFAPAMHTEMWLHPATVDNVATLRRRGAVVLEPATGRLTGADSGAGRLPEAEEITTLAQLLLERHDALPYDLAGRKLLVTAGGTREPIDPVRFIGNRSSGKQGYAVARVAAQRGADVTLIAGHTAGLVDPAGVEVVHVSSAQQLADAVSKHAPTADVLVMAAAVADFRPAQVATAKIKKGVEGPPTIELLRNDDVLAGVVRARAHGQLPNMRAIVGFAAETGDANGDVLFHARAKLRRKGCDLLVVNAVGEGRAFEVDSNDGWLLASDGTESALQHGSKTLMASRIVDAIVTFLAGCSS

A: 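Histidine-tRNA ligase, Leishmania infantum (UniProt A4I591). Enzyme assay of histidyl-tRNA synthetase; the read-out is not stated. Compounds at 30 µM. The record gives no direction; compounds that gave an IC50 in retests scored well above the rest, so higher reads as stronger inhibition. The assay is labelled LdHisRS but filed under L. infantum. About 69,000 compounds were tested under these conditions; 0.6% (about 410) showed 50% or more at least once.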
B: 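Tryptophan-tRNA ligase, Mycobacterium tuberculosis (UniProt P9WFT3). Enzyme assay of tryptophanyl-tRNA synthetase; the read-out is not stated. Compounds at 10 µM. Higher most likely means stronger inhibition; the record gives no direction and few retests gave an IC50. Size under these conditions: about 65,000 compounds, about 64 of them at 50% or above in at least one test.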
C: 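Assay of Toxoplasma gondii numbers, read through their beta-galactosidase reporter with a colour substrate. Tested at 10 µM. The record gives no direction; the compounds picked for IC50 retests had high values, so higher reads as fewer parasites. Size under these conditions: about 67,000 compounds, about 260 of them at 50% or above in at least one test.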
D: 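Coenzyme A biosynthesis protein CoaBC, Mycobacterium tuberculosis (UniProt P9WNZ1). Enzyme assay of CoaBC with a phosphate dye (Biomol Green) read at 650 nm. Concentration: 30 µM. Higher reads as stronger inhibition, judged from the few compounds that gave an IC50. Most strong results did not repeat in a second test. Size under these conditions: about 67,000 compounds, about 40 of them at 50% or above in at least one test.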

Results are given as percent effect. How 0% and 100% were set is not recorded. Most values in the screen are low, and negative values occur. This is an unselected part of the compounds tested. A dash means the value is not listed here; it may have been measured.

SMILES,A,B,C,D
COc1ccc(-n2ccc(C(=O)N3CCN(C)CC3C)n2)cc1 (stereo not given),16.44%,1.359%,3.917%,0.9639%
CCc1cc(NCCCOC2CCN(C)CC2)ncn1,9.836%,3.783%,19.12%,0.3589%
Cn1nnc2c1CCN(C(=O)C1CC1)C2COCCN1CCCC1 (stereo not given),14.29%,-1.465%,-,4.56%
Cc1ccc(Cl)c(NC(=O)NC2(C)CCOC2)c1 (stereo not given),-2.632%,-4.054%,-4.759%,-5.242%
COCCNC(=O)c1cc(-n2cccc2)ccc1Cl,15.79%,3.067%,9.694%,1.772%
CCc1nc(C)cc(N2CCCC(C(=O)c3ccc(OC)cc3C)C2)n1 (stereo not given),29.51%,5.512%,29.17%,3.581%
O=C(O)C(F)(F)F.c1cnc(N2CCOCC3(CN(Cc4ccsc4)CCO3)C2)nc1 (stereo not given),-,-,-9.41%,-
CCOc1ccc2[nH]c(=O)c(CN3CCN(S(N)(=O)=O)CC3)cc2c1,15.29%,0.06456%,22.5%,6.091%
CCC(=O)N1CCC(Cc2ccccc2-c2cccc(C)c2)(C(N)=O)C1 (stereo not given),-6%,-,3.75%,-17.72%
Cc1cncc(CN2C[C@@H](O)[C@H](Oc3ccccc3)C2)c1,16.49%,-,-6.05%,-0.2421%
O=C(C1CC1)N1CCC2(CC1)OCCO2,11.43%,-4.555%,-87.83%,7.962%
Cc1nc[nH]c1CN1CCCN(c2nc3ccccc3s2)CC1,18.99%,-3.405%,19.22%,0.6337%
COc1ccc(-c2cnc(N(C)C)nc2C2CNCCO2)cc1.Cl (stereo not given),-,-,-1.203%,-
CCN(C(=O)c1nc2c(s1)CCCN2C(C)=O)C(C)C,7.692%,-,0.118%,1.091%
CCc1nccn1CC(=O)N1CCN(C2CCc3ccccc3C2)CC1 (stereo not given),25%,-6.882%,14.53%,-26.17%
COc1ccccc1CN(CC1CCCO1)C(=O)c1csnn1 (stereo not given),6.122%,2.084%,21.19%,-1.837%
O=C(O)C(F)(F)F.[H][C@@]12CN(Cc3ccsc3)C[C@]1([H])OCCN2c1ccnc(N(C)C)n1,-,-,-3.96%,-
O=C(CNc1cc(F)ccc1OC(F)F)NCC(F)(F)F,11.29%,-2.897%,0.6039%,0.2445%
CC(C)c1cc(NC(=O)Cn2cnc3ccccc3c2=O)[nH]n1,22.67%,-3.664%,-9.717%,-4.573%
Cc1cc(Oc2ccccc2F)nc(C2CCCCN2)n1 (stereo not given),14.18%,-5.065%,-,17.79%
CC1(C)[C@H]2CC=C(CN3CCCn4nc(C(=O)NCCO)cc4C3)[C@@H]1C2,-6.383%,-2.982%,-,1.241%
CCc1nc(CN(C)CC(=O)OC(C)(C)C)cs1,-3.261%,-3.732%,7.682%,-2.058%
CN(Cc1ccco1)C(=O)NCc1ccnc(SC(C)(C)C)c1,11.11%,-1.944%,-1.424%,0.7937%
N#Cc1cccnc1NCCNC(=O)N1CCCC(C(F)(F)F)C1 (stereo not given),19.23%,-2.245%,-4.039%,3.625%
Cl.Cl.c1cnc(NCc2cncc3c2CCN(Cc2ccoc2)C3)nc1,-,-,-11.5%,-
Cc1cccc2c1nc(COCC(=O)O)n2-c1ccc(N)nc1,1.667%,6.876%,-21.3%,-5.353%
Cc1ccc(CN(CCN(C)C)C(=O)Nc2cnn(C)c2)s1,12.86%,0.722%,-6.617%,2.664%
CN(C)C1CC2(CCN(C(=O)C3(C#N)CC3)CC2)c2ccccc21.O=C(O)C(F)(F)F (stereo not given),-,-,-15.75%,-
CC(C)Sc1ncccc1C(=O)NCc1ccc(CS(C)(=O)=O)cc1,13.51%,-3.216%,0.8436%,3.133%
Cn1cnc2c1C(COCC1CC1)CN(C(=O)Cc1ccsc1)C2 (stereo not given),12.62%,-1.433%,-,4.183%
COCCN(CC1CC1)c1nc(CCN)nc2ccccc12,16.33%,0.2937%,20.99%,-13.72%
Cn1cccc1C(=O)N1CCCC2(CCN(CCN3CCCC3)C2=O)C1.O=C(O)C(F)(F)F (stereo not given),-,-,14.18%,-
Cc1nc(COc2nc(C(C)C)no2)cs1,9.859%,3.935%,0.3236%,-
Fc1cccc2c1CCC2NCc1ccc(N2CCOCC2)cc1 (stereo not given),20%,1.941%,-30%,-2.418%
N#Cc1cn(C2CC2)c(=O)n(CC(O)c2ccc(Cl)cc2)c1=O (stereo not given),-1.835%,-0.104%,3.133%,2.558%
CCc1cc(C(F)(F)F)c2c(C3CCN(C(=O)COC)CC3)noc2n1,2%,-,-8.75%,-4.089%
CNCC[C@H]1CC(C)(C)Oc2ccc(OCC3CC3)cc21,20%,-,23.47%,3.253%
O=C(c1cc[nH]n1)N1CCCC(c2cccc(-n3ccnc3)n2)C1 (stereo not given),14.29%,4.083%,-5.109%,-0.6545%
Cc1nc(CCN)cc(N(C)Cc2nc3ccc(F)cc3[nH]2)n1,-76.71%,5.948%,3.926%,-9.091%
CC(C)N(CC(=O)Nc1cccc(C(=O)N(C)C)c1)C1CC1,11.11%,1.525%,-5.896%,0.2433%
CCN(Cc1ccc2c(c1)OCCO2)C(=O)NC(C)Cn1ccnc1 (stereo not given),16.44%,0.5596%,1.376%,0.7229%
Cc1ccc(C(=O)N2CCCCC2CNC(N)=O)s1 (stereo not given),14.71%,-6.046%,-34.02%,11.41%
O=C([C@@H]1CC[C@@H]2[C@@H](CCN2Cc2ccncc2)O1)N1CCCCO1,22.86%,-2.278%,-,5.863%
CNC(=O)C1CCN(C(=O)c2cccn2Cc2cccs2)CC1,13.7%,-2.958%,4.764%,-4.819%
O=C(c1ccco1)N1CC[C@@H](N2CCOCC2)[C@@H]1Cc1ccncc1,11%,-0.9856%,-,2.349%

The last 5 entries again:

SMILES,A,B,C,D
CCN(Cc1ccc2c(c1)OCCO2)C(=O)NC(C)Cn1ccnc1 (stereo not given),16.44%,0.5596%,1.376%,0.7229%
Cc1ccc(C(=O)N2CCCCC2CNC(N)=O)s1 (stereo not given),14.71%,-6.046%,-34.02%,11.41%
O=C([C@@H]1CC[C@@H]2[C@@H](CCN2Cc2ccncc2)O1)N1CCCCO1,22.86%,-2.278%,-,5.863%
CNC(=O)C1CCN(C(=O)c2cccn2Cc2cccs2)CC1,13.7%,-2.958%,4.764%,-4.819%
O=C(c1ccco1)N1CC[C@@H](N2CCOCC2)[C@@H]1Cc1ccncc1,11%,-0.9856%,-,2.349%

Data taken from ChEMBL document CHEMBL3988442, “University of Dundee, Small-Polar-MMV Screening Library” (2021).